Out of some 320,000 compounds screened, about 620 (0.19%) were called active. This list was built around the results that the source calls inconclusive (neither active nor inactive); the mix of calls is not that of the screen. The call rests on the fitted dose curve; in most records, active means well fitted activation curve with a large enough effect; inconclusive means small, poorly fitted or top-dose-only effect; inactive means no such curve, though single readings can be large or run the other way. Potencies of inconclusive entries are doubtful fits and often do not repeat.
Assay: qHTS Assay for Identifying a Potential Treatment of Ataxia-Telangiectasia; further: nearly all actives have a fitted effect of over 45% in size; on activation: % of control where 0% means no effect
Conditions: […] A-T fibroblasts, KAP-1 phosphorylation AlphaLISA, neocarzinostatin DNA damage 30 min before lysis; series mostly up to 57.5 µM; activation: at the top concentration
Method in brief: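 ATM-like activity read as KAP-1 phosphorylation via AlphaLISA donor/acceptor antibody pairs after lysis and 6 hr at 25C. Cells were ATM-null patient fibroblasts ([…], hTERT), dosed 60 min, then exposed to the DSB inducer NCS for 30 min.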
Potency means the concentration at half of the fitted maximal effect.

SMILES | activation | Potency
CCc1ccc(/C=N/NC(=O)c2c[nH]c3ccccc23)s1 | inactive: -5.1% | 
NNC(=O)c1cccn(Cc2cccc(C(F)(F)F)c2)c1=O |  | inconclusive: 10 µM [activator, partial curve]
COc1ccc(CC(=O)Nc2nnc(C(C)C)s2)cc1OC | inactive: -1.42% | 
CCCCCCC(=O)N/N=C/c1ccc(Br)cc1 |  | inconclusive: 39.8 µM [activator, single point]
CN(Cc1ccccc1F)C(=O)c1ccc(Oc2ccccc2)cc1 |  | active: 14.1 µM
O=[N+]([O-])c1ccc(N(c2ccccc2)c2ccccc2)cc1 |  | inconclusive: 39.8 µM [activator, single point]
CC1(C)C(=O)Nc2ccccc2N1C(=O)COC(=O)c1cccnc1Cl |  | inconclusive: 35.5 µM [activator, single point]
CC1CCc2c(sc(/N=C/c3ccco3)c2C(N)=O)C1 (stereo not given) |  | active: 15.8 µM
COc1ccc(NS(=O)(=O)c2ccc(NC(=O)c3ccc(N(C)S(C)(=O)=O)cc3)cc2)c(OC)c1 | inactive: 5.91% | 
Cc1c(C)n(C(=O)CN2CCC(C)CC2)c2ccccc12 |  | inconclusive: 39.8 µM [activator, single point]
CCCN1C(=O)c2ccccc2NC1c1ccc(OC)cc1O (stereo not given) | inactive: 8.97% | 
COC(=O)c1ccc(C(=O)Nc2ccc(F)cc2)cc1 |  | active: 28.2 µM
CC(C)[C@H](NC(=O)c1cc2cc(Cl)ccc2n1C)C(=O)N[C@@H](C(=O)O)c1ccccc1 |  | inconclusive: 8.91 µM [activator, single point]
CCCSc1nc2c3c(sc2c(=O)[nH]1)CC(C)(CC)OC3 (stereo not given) | inactive: -1.69% | 
CC(C)Sc1ncnc2c1cnn2-c1ccccc1 |  | active: 39.8 µM
COCCCNCCCCOc1ccc(OCc2ccccc2)cc1 | inactive: -1.04% | 
COc1ccc(-c2cc3ccc(O)cc3oc2=O)cc1OC |  | inconclusive: 28.2 µM [activator, partial curve]
O=C(Nc1ccccc1[N+](=O)[O-])c1cc2ccccc2nc1Cl |  | inconclusive: 3.16 µM [activator, full curve, poor fit]
S=c1[nH]nc(-c2cccc(Br)c2)o1 | inactive: -2.66% | 
COC(=O)CCC(=O)NNC(=O)c1ccc(Br)cc1 |  | inconclusive: 39.8 µM [activator, partial curve, poor fit]
CCN1CCN(C(c2ccc(C(F)(F)F)cc2)c2ccc3cccnc3c2O)CC1 (stereo not given) |  | inconclusive: 0.708 µM [activator, partial curve, poor fit]
O=C(CSc1nnc(C23CC4CC(CC(C4)C2)C3)o1)Nc1ccc(N2CCOCC2)c(Cl)c1 |  | inconclusive: 3.16 µM [activator, partial curve]
Cc1ccc(C(=O)NCC(=O)N(C)CC(=O)Nc2ccccc2Br)s1 |  | inconclusive: 7.94 µM [activator, single point]
CCOc1ccc(Nc2nnc(SCc3nc4ccccc4c(=O)[nH]3)s2)cc1 |  | inconclusive: 3.16 µM [activator, partial curve]
C[C@]12CC[C@@H]3c4ccc(OC(=O)c5ccccc5)cc4CC[C@H]3[C@@H]1CC[C@@H]2O |  | active: 17.8 µM

SMILES | activation | Potency
O=C(CSc1nc2ccccc2c(=O)[nH]1)c1ccc(O)cc1O | inactive: -0.983% | 
O=C1NC(=Nc2ccccc2)CS1 |  | active: 11.2 µM
Cn1c(=O)c2c(nc(CN3CCc4ccccc4C3)n2CCCO)n(C)c1=O | inactive: 2.91% | 
CC#CC(=O)N1CCC(C(=O)Nc2ccc(Oc3ccccc3)nc2)CC1 | inactive: 5.79% | 
Cc1cc(C)n(-c2nc(NCCN(C)C)c3c4c(sc3n2)CCCC4)n1 |  | active: 39.8 µM
Cc1ccc(NC(=O)Cn2cccc2)c(Br)c1 | inactive: -12.5% | 
O=C(/C(Cl)=C/Nc1ccc(Br)cn1)C(F)(F)F |  | inconclusive: 39.8 µM [activator, partial curve, poor fit]
CCN(CC)CCn1c(N)c(S(=O)(=O)c2ccccc2)c2nc3ccccc3nc21 |  | inconclusive: 25.1 µM [activator, partial curve, poor fit]
O=c1c2[nH]c3ccc(Cl)cc3c2ncn1CCN1CCCCC1 |  | active: 28.2 µM
OCCN(CCO)c1nc(N2CCCCC2)c2nc(N(CCO)CCO)nc(N3CCCCC3)c2n1 |  | active: 31.6 µM
Cc1cc(S(=O)(=O)Nc2c(C(=O)O)[nH]c3ccccc23)ccc1F |  | inconclusive: 3.55 µM [activator, partial curve]
O=c1oc2ccccc2c(NC2CCCCC2)c1NS(=O)(=O)c1ccc(F)cc1 |  | inconclusive: 7.08 µM [activator, single point]
CN(C)Cc1ccc(F)cc1Sc1ccc(Cl)cc1Cl |  | inconclusive: 31.6 µM [activator, single point]
COc1cc(NC(=O)C(Cc2ccccc2)n2cccc2)cc(OC)c1 (stereo not given) | inactive: 0% | 
CCc1nc(N2CCCC(C)C2)c2oc3ccccc3c2n1 (stereo not given) |  | active: 39.8 µM
N#C/C(=C(/O)c1cccs1)c1nc2ccccc2[nH]1 |  | inconclusive: 39.8 µM [activator, single point]
COCCN1C=C(C(=O)OC)C(c2ccccc2Cl)C(C(=O)OC)=C1 |  | inconclusive: 22.4 µM [activator, partial curve]
O=[N+]([O-])c1cc(S(=O)(=O)N2CCOCC2)ccc1OCc1ccccc1C(F)(F)F |  | inconclusive: 28.2 µM [activator, partial curve]
CC1CCCN(c2ncnc3c2cnn3-c2ccc(Cl)cc2)C1 (stereo not given) |  | inconclusive: 39.8 µM [activator, single point]
Cc1ccc(NC(=O)C2CCCN(S(=O)(=O)c3c(C)noc3/C=C/N(C)C)C2)cc1F (stereo not given) |  | inconclusive: 25.1 µM [activator, partial curve]
CCCCNS(=O)(=O)c1ccc2nc(SCC(N)=O)[nH]c2c1 | inactive: 10.8% | 
COc1ccc2cc(-c3cc(C(=O)O)c4ccccc4n3)ccc2c1 |  | inconclusive: 28.2 µM [activator, partial curve]
S=c1[nH]ccn1CCc1ccccc1 |  | inconclusive: 2.82 µM [activator, full curve, poor fit]
C=C(C)CNC(=S)N/N=C/c1ccco1 |  | inconclusive: 6.31 µM [activator, partial curve, poor fit]
Cc1ccc(S(=O)(=O)N2[C@@H](c3cccc(Cl)c3)C(C(=O)O)=CC[C@H]2c2ccc(C(C)C)cc2)cc1 | inactive: -7.12% | 

SMILES | activation | Potency
CCOC(=O)/C=C/C(=O)OCC(=O)Nc1c(Cl)cccc1Cl | inactive: 10.8% | 
CC1C(=O)C(C)C(c2ccc3c(c2)OCO3)NC1c1ccc2c(c1)OCO2 (stereo not given) | inactive: -4.52% | 
CCCOc1ccc(N)cc1N |  | inconclusive: 31.6 µM [activator, single point]
CC(C)=CCC1=C(OCC(=O)O)C(=O)c2ccccc2C1=O |  | inconclusive: 2.51 µM [activator, full curve, poor fit]
CCN1CCN(Cc2ccc(NC(=O)c3cc(NC(=O)N4CCNC4=O)cc(OC)c3)cc2C(F)(F)F)CC1 |  | inconclusive: 39.8 µM [activator, single point]
CCOC(=O)C1CCCN(C(=O)c2sc3nc(-c4ccccc4)cn3c2C)C1 (stereo not given) | inactive: 6.51% | 
COc1ccc(CC(=O)Nc2c(C(N)=O)oc3ccccc23)cc1OC |  | inconclusive: 7.94 µM [activator, partial curve]
Cc1[nH]nc2c1C(C1CC=CCC1)C(C#N)=C(N)O2 (stereo not given) |  | inconclusive: 17.8 µM [activator, partial curve]
CCOc1ccc(NC(=O)c2ccccc2OCC(=O)c2ccccc2)cc1 |  | inconclusive: 1.58 µM [activator, partial curve]
Cc1ccc(-c2nnn(CC(=O)N(CC(=O)NC3CCCCC3)c3ccc(F)c(Cl)c3)n2)o1 |  | inconclusive: 39.8 µM [activator, single point]
CCc1nc(C)ccc1OC(=O)C12CC3CC(CC(C3)C1)C2 |  | inconclusive: 31.6 µM [activator, single point]
COc1ccccc1-n1cc(C(=O)NCC(=O)N2CCN(c3ccccn3)CC2)c2ccccc2c1=O |  | active: 22.4 µM
Cc1ccccc1NS(=O)(=O)c1cc(C(=O)Nc2cccc(N(C)S(C)(=O)=O)c2)ccc1C | inactive: -3.44% | 
COc1cc([N+](=O)[O-])ccc1NC(=O)Oc1ccc(NC(C)=O)cc1 |  | inconclusive: 0.708 µM [activator, full curve, poor fit]
COc1cc2c(c(OC)c1OC)-c1c(cc(OC)c(OC)c1OC)C[C@H](C)[C@H](C)C2 |  | inconclusive: 20 µM [activator, partial curve]
CCCCn1c(SCC(=O)NNC(=O)c2ccccc2)n[nH]c1=O |  | inconclusive: 39.8 µM [activator, single point]
COc1cc(CN2CCC(Oc3cc(C(=O)NC4CC4)ccc3OC)CC2)cc(OC)c1 | inactive: -2.7% | 
CN(C)C(=S)c1ccccc1 | inactive: -5.03% | 
CCCNC(=O)c1csc(Nc2cccc3ccccc23)n1 | inactive: 0.131% | 
CCOC(=O)/C(=N\Nc1ccccc1Cl)N1CC(C)OC(C)C1 (stereo not given) |  | inconclusive: 39.8 µM [activator, single point]
O=C1c2cccnc2C(O)N1Cc1ccc(F)cc1 (stereo not given) | inactive: 0.642% | 
CCC(=O)NC(c1ccco1)c1cc(Cl)c2cccnc2c1O (stereo not given) | inactive: 1.71% | 
O=C(O)CC1c2ccccc2S(=O)(=O)N1Cc1ccccc1 (stereo not given) |  | inconclusive: 39.8 µM [activator, partial curve, poor fit]
CCCc1cc(-c2nc(-c3ccc(Br)cc3)cs2)ccn1 |  | inconclusive: 35.5 µM [activator, single point]
Cc1cccc(Cn2c(C(C)(C)C)cc3cccnc32)c1 |  | inconclusive: 25.1 µM [activator, partial curve]

Fetched by compound from the list above:
SMILES | activation | Potency
CC1C(=O)C(C)C(c2ccc3c(c2)OCO3)NC1c1ccc2c(c1)OCO2 (stereo not given) | inactive: -4.52% | 
Cc1ccc(NC(=O)Cn2cccc2)c(Br)c1 | inactive: -12.5% | 
COc1ccccc1-n1cc(C(=O)NCC(=O)N2CCN(c3ccccn3)CC2)c2ccccc2c1=O |  | active: 22.4 µM
O=C(O)CC1c2ccccc2S(=O)(=O)N1Cc1ccccc1 (stereo not given) |  | inconclusive: 39.8 µM [activator, partial curve, poor fit]

— PubChem BioAssay AID485349 (National Center for Advancing Translational Sciences (NCATS), 2010)
